Assay results taken from patent publication US20230148152A1, “METHOD OF SYNTHESIZING SINGLE-STRANDED NUCLEOTIDE SEQUENCE, BLOCKED NUCLEOSIDE TRIPHOSPHATES AND RELATED METHODS” (Agency for Science, Technology and Research, priority 2019, published 2023).

Tested on: terminal deoxynucleotidyl transferase (TdT)
Test: Evaluation of reversibility of reversible terminators (incorporation, capping, deprotection, elongation)
Type: biochemical

Cc1cn([C@H]2C[C@H](OC(=O)OCCSSC(C)(C)C)[C@@H](COP(=O)(O)OP(=O)(O)OP(=O)(O)O)O2)c(=O)[nH]c1=O [DT-dTTP, disulfide carbonate (DT)-dTTP]
removal of the removable terminating group (DT removal: 0.1 M DTT solution for 1 h, FIG. 15): successful

Cc1cn([C@H]2C[C@H](OCCC#N)[C@@H](COP(=O)(O)OP(=O)(O)OP(=O)(O)O)O2)c(=O)[nH]c1=O [CE-dTTP, 2-cyanoethyl ether (CE)-dTTP]
removal of the removable terminating group (3′-OH retrieved) (CE removal: 30% NH4OH, 80° C. for 1 h, FIG. 13 and FIG. 14): successful
